Article PMC10093141
No constants are given. Whether binding was seen depends on the method and setting. In cells and extracts the contact can be indirect. Some entries that bind do so weakly or less than the wild type.

Sequences of proteins named here, by UniProt entry; tags and fusion partners are left off.
UniProt P46937: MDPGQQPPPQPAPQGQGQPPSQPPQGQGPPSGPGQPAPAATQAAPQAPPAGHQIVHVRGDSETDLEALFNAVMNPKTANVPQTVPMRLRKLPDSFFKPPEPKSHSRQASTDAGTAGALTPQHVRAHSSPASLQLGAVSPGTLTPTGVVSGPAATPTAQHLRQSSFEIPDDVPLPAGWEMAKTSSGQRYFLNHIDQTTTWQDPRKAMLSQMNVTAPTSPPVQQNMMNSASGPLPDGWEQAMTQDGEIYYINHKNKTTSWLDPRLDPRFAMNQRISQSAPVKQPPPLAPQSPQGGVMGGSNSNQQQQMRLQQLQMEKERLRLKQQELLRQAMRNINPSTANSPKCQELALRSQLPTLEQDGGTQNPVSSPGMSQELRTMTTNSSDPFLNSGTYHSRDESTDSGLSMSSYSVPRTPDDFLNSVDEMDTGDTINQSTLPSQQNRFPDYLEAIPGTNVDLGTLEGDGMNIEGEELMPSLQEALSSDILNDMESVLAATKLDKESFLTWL

Target: Yes1 Associated Transcriptional Regulator (YAP) (human (endogenous in A549 and Calu-1)) (UniProt P46937)
Test: FRET or BRET; FRET by flow cytometry on fixed, permeabilized A549 and Calu-1 cells, untreated or treated 24 h with CytoMix; YAP labeled by antibodies with PE (donor, FL2), TBC1D2 with Cy5 (acceptor, FL4), FRET in FL3; FRET efficiency by the Riemann algorithm

binding: binds
B1: TBC1D2 (protein, UniProt Q9BYX2 1-928)
chain: MEGAGENAPESSSSAPGSEESARDPQVPPPEEESGDCARSLEAVPKKLCGYLSKFGGKGPIRGWKSRWFFYDERKCQLYYSRTAQDANPLDSIDLSSAVFDCKADAEEGIFEIKTPSRVITLKAATKQAMLYWLQQLQMKRWEFHNSPPAPPATPDAALAGNGPVLHLELGQEEAELEEFLCPVKTPPGLVGVAAALQPFPALQNISLKHLGTEIQNTMHNIRGNKQAQGTGHEPPGEDSPQSGEPQREEQPLASDASTPGREPEDSPKPAPKPSLTISFAQKAKRQNNTFPFFSEGITRNRTAQEKVAALEQQVLMLTKELKSQKELVKILHKALEAAQQEKRASSAYLAAAEDKDRLELVRHKVRQIAELGRRVEALEQERESLAHTASLREQQVQELQQHVQLLMDKNHAKQQVICKLSEKVTQDFTHPPDQSPLRPDAANRDFLSQQGKIEHLKDDMEAYRTQNCFLNSEIHQVTKIWRKVAEKEKALLTKCAYLQARNCQVESKYLAGLRRLQEALGDEASECSELLRQLVQEALQWEAGEASSDSIELSPISKYDEYGFLTVPDYEVEDLKLLAKIQALESRSHHLLGLEAVDRPLRERWAALGDLVPSAELKQLLRAGVPREHRPRVWRWLVHLRVQHLHTPGCYQELLSRGQAREHPAARQIELDLNRTFPNNKHFTCPTSSFPDKLRRVLLAFSWQNPTIGYCQGLNRLAAIALLVLEEEESAFWCLVAIVETIMPADYYCNTLTASQVDQRVLQDLLSEKLPRLMAHLGQHHVDLSLVTFNWFLVVFADSLISNILLRVWDAFLYEGTKVVFRYALAIFKYNEKEILRLQNGLEIYQYLRFFTKTISNSRKLMNIAFNDMNPFRMKQLRQLRMVHRERLEAELRELEQLKAEYLERRASRRRAVSEGCASEDEVEGEA
